Reference: patent US20060276460A1, “Use of piperazine phenothiazine derivatives in the manufacture of a medicament with neuroprotector and/or neurotrophic effects on cns and/or pns” (priority 2003, published 2006)

Test system: mesencephalic neurons
Details: 5 micromoles/l
Procedure: Cortical neurons are involved in Alzheimer's disease and also in mesencephale neurons or dopaminergic neurons which are themselves involved in Parkinson's disease. (see also protocol described by Y. Mitsumotol, A. Watanabe, T. Miyauchi, F. Jimma, and T. Moriizumi in Stimulation of the regrowth of MPP+/damaged dopaminergic fibers by the treatment of mesencephalic cultures with basigin; J Neural Transm (2001) 108: 1127-1134).
The neuroprotective activity is assessed on MPP+ induced mesencephalic neuron loss with flufenazine concentration of 250 nmol/l
The cells are intoxicated by 2 micromol of MPP+ as neurotoxic during 24 h. The cell culture is then treated with 250 nm/l of flufenazine.
The percentage of mesencephalic neuronal survival obtained when intoxicated cells cultures are incubated with flufenazine is compared to cell cultures without flufenazine.

## Nc1nc2ccc(OC(F)(F)F)cc2s1 [Riluzole]
  reversal of MPP+ induced neuronal loss: to the same extent
